The supplement of paper PMC10849652
Some of the results follow.

Chains of the proteins cited; added tags and fusions are not shown. Lines headed by an entry give the natural chain unless they say otherwise; changes in a name come on top.
UniProt Q15283: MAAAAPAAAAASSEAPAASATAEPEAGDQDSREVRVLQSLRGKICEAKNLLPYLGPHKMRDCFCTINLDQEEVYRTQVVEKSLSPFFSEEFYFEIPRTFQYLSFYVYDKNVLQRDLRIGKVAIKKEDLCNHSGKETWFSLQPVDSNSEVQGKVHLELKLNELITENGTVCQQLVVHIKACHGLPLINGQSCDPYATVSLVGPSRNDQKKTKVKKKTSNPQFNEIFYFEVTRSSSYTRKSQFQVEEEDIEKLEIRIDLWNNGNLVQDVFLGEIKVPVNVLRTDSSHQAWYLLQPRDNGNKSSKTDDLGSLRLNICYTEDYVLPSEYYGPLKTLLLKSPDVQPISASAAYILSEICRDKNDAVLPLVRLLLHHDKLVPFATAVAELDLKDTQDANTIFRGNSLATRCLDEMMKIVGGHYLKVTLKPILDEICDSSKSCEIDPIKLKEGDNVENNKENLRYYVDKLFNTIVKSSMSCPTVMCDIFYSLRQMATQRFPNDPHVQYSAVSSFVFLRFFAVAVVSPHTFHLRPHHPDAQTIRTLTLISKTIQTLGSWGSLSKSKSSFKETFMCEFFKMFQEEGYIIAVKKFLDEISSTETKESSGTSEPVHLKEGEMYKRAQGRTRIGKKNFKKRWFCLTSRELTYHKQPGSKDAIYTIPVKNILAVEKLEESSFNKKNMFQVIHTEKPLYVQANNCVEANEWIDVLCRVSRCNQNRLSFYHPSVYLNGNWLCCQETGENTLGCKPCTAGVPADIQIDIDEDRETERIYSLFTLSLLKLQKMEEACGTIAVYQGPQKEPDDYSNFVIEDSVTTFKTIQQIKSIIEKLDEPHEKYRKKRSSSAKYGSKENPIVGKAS
UniProt Q9BTD8: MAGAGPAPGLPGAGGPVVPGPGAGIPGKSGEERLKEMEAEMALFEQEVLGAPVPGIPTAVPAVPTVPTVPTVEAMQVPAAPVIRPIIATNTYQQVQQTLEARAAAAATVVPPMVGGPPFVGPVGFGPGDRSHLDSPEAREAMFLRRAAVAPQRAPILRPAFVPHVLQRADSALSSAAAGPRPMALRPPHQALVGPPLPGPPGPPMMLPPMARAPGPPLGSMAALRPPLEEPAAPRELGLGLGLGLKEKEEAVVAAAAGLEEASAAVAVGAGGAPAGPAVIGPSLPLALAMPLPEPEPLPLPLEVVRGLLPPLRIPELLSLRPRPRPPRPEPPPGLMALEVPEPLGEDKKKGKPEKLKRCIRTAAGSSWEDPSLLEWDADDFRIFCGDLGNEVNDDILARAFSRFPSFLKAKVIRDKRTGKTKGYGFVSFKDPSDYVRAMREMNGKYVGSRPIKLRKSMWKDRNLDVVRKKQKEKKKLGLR
UniProt P35250, whole entry, looked up: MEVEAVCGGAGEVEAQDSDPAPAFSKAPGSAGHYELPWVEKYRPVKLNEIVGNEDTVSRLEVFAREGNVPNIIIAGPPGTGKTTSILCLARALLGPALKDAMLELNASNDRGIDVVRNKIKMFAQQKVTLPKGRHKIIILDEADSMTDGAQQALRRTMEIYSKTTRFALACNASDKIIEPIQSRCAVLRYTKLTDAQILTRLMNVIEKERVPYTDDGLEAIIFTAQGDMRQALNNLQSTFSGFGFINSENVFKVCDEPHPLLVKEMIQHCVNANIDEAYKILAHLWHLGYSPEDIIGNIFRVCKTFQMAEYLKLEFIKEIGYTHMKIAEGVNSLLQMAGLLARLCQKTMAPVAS
UniProt Q9UKL0, whole entry, looked up: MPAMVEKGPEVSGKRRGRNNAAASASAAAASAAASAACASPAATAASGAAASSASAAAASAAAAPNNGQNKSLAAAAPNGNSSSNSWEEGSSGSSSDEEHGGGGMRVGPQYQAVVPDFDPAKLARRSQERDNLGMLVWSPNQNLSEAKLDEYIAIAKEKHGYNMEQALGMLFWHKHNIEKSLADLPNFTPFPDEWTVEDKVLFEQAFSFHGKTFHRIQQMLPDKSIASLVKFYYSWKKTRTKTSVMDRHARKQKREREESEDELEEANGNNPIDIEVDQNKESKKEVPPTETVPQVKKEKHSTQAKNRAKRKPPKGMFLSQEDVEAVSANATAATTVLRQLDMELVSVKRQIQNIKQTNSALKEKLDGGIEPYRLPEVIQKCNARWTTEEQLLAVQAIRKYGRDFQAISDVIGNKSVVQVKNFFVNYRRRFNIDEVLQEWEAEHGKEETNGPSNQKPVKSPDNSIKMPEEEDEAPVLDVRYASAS
UniProt Q9GZR2: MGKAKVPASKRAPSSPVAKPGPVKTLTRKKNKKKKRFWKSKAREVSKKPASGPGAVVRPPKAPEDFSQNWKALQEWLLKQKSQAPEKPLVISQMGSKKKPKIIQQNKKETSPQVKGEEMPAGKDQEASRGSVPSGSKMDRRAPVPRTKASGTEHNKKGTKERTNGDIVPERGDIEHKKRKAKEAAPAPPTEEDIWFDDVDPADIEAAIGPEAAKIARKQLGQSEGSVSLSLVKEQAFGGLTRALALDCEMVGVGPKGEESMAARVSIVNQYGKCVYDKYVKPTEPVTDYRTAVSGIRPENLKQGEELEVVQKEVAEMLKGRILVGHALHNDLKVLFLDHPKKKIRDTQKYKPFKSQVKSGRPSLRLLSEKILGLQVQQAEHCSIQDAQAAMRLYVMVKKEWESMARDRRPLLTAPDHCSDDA
UniProt Q9P258, whole entry, looked up: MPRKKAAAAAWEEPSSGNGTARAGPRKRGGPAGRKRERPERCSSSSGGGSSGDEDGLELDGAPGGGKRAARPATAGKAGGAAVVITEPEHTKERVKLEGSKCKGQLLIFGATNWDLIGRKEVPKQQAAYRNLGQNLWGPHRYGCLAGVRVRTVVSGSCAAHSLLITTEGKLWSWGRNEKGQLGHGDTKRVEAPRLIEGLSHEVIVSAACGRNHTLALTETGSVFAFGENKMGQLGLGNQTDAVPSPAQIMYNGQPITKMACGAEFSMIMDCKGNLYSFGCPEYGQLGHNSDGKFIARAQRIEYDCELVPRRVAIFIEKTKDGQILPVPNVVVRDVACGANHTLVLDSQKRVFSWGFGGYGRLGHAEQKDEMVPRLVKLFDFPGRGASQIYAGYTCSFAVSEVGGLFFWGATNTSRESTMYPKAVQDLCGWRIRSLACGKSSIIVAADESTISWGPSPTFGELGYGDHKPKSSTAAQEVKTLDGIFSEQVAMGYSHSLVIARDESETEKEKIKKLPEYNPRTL
UniProt Q8NBN7: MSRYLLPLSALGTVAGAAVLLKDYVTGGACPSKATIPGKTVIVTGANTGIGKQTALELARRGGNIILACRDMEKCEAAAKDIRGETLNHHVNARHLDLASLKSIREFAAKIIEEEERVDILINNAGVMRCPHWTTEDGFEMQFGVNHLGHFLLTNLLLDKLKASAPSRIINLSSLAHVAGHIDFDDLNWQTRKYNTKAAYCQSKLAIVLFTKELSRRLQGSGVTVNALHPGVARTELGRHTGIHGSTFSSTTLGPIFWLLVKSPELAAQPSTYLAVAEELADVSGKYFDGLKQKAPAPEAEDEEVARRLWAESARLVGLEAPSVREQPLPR
UniProt Q9NW64: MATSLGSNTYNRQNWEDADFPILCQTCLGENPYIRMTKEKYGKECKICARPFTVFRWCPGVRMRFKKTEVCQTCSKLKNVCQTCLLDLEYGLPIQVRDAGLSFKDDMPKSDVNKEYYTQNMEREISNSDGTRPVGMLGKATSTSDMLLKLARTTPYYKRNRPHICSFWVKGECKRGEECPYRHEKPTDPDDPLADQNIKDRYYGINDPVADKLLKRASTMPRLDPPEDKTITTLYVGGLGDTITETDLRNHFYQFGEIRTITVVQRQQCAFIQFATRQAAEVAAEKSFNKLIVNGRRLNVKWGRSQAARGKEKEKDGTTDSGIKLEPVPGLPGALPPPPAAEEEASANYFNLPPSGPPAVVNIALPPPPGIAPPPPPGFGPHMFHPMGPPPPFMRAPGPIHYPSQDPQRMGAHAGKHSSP
UniProt Q96D15: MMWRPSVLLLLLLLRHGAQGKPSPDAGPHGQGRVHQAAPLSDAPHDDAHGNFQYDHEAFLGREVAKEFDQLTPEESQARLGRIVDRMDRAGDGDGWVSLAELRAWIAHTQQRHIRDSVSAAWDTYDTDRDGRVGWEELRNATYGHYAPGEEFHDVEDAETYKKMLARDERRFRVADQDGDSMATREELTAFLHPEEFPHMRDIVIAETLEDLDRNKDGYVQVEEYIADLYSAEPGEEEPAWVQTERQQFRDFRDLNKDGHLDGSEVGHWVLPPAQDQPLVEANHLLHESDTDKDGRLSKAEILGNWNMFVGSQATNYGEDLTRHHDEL
UniProt P20936: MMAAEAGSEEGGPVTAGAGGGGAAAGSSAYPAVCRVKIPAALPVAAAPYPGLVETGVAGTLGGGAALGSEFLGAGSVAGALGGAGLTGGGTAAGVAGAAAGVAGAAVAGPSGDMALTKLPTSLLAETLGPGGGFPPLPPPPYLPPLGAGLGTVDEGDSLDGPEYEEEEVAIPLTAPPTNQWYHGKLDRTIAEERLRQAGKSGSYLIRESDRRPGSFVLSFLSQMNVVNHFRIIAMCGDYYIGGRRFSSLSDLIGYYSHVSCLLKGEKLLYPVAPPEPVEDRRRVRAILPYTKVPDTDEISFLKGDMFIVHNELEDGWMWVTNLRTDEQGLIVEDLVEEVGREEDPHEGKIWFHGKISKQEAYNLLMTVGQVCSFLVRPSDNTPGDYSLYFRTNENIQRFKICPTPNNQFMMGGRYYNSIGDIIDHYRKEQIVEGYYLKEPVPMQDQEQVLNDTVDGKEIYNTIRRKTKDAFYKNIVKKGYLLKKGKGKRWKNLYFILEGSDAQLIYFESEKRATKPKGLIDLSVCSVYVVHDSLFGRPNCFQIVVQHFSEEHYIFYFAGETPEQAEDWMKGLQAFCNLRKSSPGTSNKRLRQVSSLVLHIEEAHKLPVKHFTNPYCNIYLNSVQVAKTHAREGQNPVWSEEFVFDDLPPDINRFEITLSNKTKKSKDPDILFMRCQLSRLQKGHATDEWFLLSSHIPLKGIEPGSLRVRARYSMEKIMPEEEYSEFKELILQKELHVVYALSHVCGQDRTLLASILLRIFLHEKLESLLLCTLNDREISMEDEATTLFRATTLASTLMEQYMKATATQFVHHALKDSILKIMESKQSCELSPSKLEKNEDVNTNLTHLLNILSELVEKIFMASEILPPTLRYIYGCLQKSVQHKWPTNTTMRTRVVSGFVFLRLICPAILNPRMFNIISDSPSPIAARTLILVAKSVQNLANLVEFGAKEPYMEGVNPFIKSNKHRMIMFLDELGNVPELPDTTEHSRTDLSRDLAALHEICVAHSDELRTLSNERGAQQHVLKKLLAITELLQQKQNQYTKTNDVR
UniProt Q9BWE0: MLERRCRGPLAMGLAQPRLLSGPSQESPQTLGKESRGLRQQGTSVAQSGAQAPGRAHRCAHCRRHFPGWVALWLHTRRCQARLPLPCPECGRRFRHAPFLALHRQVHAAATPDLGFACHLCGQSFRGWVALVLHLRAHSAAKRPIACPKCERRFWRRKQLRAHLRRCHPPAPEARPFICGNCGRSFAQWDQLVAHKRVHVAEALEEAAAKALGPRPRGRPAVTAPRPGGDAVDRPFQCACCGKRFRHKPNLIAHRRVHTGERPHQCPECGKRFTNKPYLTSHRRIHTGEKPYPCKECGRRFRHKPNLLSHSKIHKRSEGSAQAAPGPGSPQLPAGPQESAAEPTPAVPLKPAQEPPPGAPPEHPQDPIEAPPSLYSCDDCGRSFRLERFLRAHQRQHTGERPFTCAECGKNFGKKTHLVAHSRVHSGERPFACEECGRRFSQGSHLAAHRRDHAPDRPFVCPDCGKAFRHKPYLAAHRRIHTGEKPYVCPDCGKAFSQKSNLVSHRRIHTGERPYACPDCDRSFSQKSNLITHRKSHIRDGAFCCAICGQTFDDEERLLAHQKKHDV
UniProt Q00765: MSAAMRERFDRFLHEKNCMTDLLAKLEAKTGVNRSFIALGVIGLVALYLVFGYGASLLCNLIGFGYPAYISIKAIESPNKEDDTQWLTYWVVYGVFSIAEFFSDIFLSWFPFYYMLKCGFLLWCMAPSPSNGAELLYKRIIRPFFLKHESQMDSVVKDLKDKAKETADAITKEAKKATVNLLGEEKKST

Assays:
Experiment in all cases: log2 fold change, soluble protein after heating vs DMSO (PISA); higher = thermal stabilisation; K562 lysate, 10 uM; active = over 0.2 and 3.5 SD of the protein, either way, in both replicates (recomputed)
alvocidib = compound: CN1CC[C@H](c2c(O)cc(O)c3c(=O)cc(-c4ccccc4Cl)oc23)[C@H](O)C1 [alvocidib]
In short: (§1)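 Following dounce homogenisation of K562 pellets in PBS pH 7.4 with 1 mM MgCl2, crude extract at 1 mg/mL protein was incubated for 30 min with 10 μM compound. Aliquots were then heated for 3 min over 48°C-58°C and pooled, NP-40 was added to 0.5% at 4°C, and soluble protein was recovered as the supernatant at 21,000xg for 90 min. Channel-sum-equalised TMTpro 16plex LC-MS/MS quantified this protein. Each value, from duplicates, is a log-two fold change in thermal stability relative to solvent controls.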

Tubastatin A = compound: CN1CCc2c(c3ccccc3n2Cc2ccc(C(=O)NO)cc2)C1 [Tubastatin A]
In short: as §1

[1] = compound: CNC(=O)C1=CC=CC=C1NC2=NC(=NC=C2Cl)NC3=C(C=C(C=C3)N4CCOCC4)OC
In short: as §1

defactinib = compound: CNC(=O)c1ccc(Nc2ncc(C(F)(F)F)c(NCc3nccnc3N(C)S(C)(=O)=O)n2)cc1 [defactinib]
In short: as §1

[2] = compound: CNc1nc(-c2ccc3c(N)n[nH]c3c2)cc(N2C[C@@H](C(=O)NC3CCCCC3)CC[C@H]2C)n1
In short: as §1

encorafenib = compound: COC(=O)N[C@@H](C)CNc1nccc(-c2cn(C(C)C)nc2-c2cc(Cl)cc(NS(C)(=O)=O)c2F)n1 [encorafenib]
In short: as §1

[3] = compound: COC(=O)[C@H](CCSC)NC(=O)C1=C(C=C(C=C1)NC[C@H](CS)N)C2=CC=CC=C2
In short: as §1

alisertib = compound: COc1cc(Nc2ncc3c(n2)-c2ccc(Cl)cc2C(c2c(F)cccc2OC)=NC3)ccc1C(=O)O [alisertib]
In short: as §1

[4] = compound: COc1cc2nc(-c3cc(F)ccc3O)nc(N[C@@H]3CNC[C@H]3C(C)(C)O)c2cc1OC
In short: as §1

gefitinib = compound: COc1cc2ncnc(Nc3ccc(F)c(Cl)c3)c2cc1OCCCN1CCOCC1 [gefitinib]
In short: as §1

lapatinib = compound: CS(=O)(=O)CCNCc1ccc(-c2ccc3ncnc(Nc4ccc(OCc5cccc(F)c5)c(Cl)c4)c3c2)o1 [lapatinib]
In short: as §1

pictilisib = compound: CS(=O)(=O)N1CCN(Cc2cc3nc(-c4cccc5[nH]ncc45)nc(N4CCOCC4)c3s2)CC1 [pictilisib]
In short: as §1

crizotinib = compound: C[C@@H](Oc1cc(-c2cnn(C3CCNCC3)c2)cnc1N)c1c(Cl)ccc(F)c1Cl [crizotinib]
In short: as §1

[5] = compound: C[C@H](C1=CC=C(C=C1)C(=O)NC2=C3C=CNC3=NC=C2)N
In short: as §1

duvelisib = compound: C[C@H](Nc1ncnc2nc[nH]c12)c1cc2cccc(Cl)c2c(=O)n1-c1ccccc1 [duvelisib]
In short: as §1

gandotinib = compound: Cc1cc(Nc2cc(CN3CCOCC3)c3nc(C)c(Cc4ccc(Cl)cc4F)n3n2)n[nH]1 [gandotinib]
In short: as §1

tozasertib = compound: Cc1cc(Nc2cc(N3CCN(C)CC3)nc(Sc3ccc(NC(=O)C4CC4)cc3)n2)n[nH]1 [tozasertib]
In short: as §1

doramapimod = compound: Cc1ccc(-n2nc(C(C)(C)C)cc2NC(=O)Nc2ccc(OCCN3CCOCC3)c3ccccc23)cc1 [doramapimod]
In short: as §1

bafetinib = compound: Cc1ccc(NC(=O)c2ccc(CN3CC[C@H](N(C)C)C3)c(C(F)(F)F)c2)cc1Nc1nccc(-c2cncnc2)n1 [bafetinib]
In short: as §1

[6] = compound: Cc1cccc(CC(=O)N2CCc3c2ccc(-c2cn(C)c4ncnc(N)c24)c3F)n1
In short: as §1

Measured: log2 fold change

RASA2 (UniProt Q15283)
inactive: alvocidib 0 | Tubastatin A -0.078 | [1] 0.019 | defactinib 0.053 | [2] -0.064 | encorafenib -0.059 | [3] 0.113 | alisertib -0.003 | [4] -0.008 | gefitinib -0.003 | lapatinib 0.026 | pictilisib -0.089 | crizotinib -0.014 | [5] -0.007 | duvelisib -0.045 | gandotinib -0.087 | tozasertib 0.013 | doramapimod 0.072 | bafetinib -0.078 | [6] 0.096

RBM42 (UniProt Q9BTD8)
active: [3] -0.28 | doramapimod 0.216
inactive: alvocidib -0.036 | Tubastatin A -0.022 | [1] 0.08 | defactinib 0.058 | [2] 0.077 | encorafenib 0.098 | alisertib 0.043 | [4] -0.062 | gefitinib -0.066 | lapatinib 0.05 | pictilisib 0.049 | crizotinib 0.01 | [5] 0.026 | duvelisib -0.032 | gandotinib 0.04 | tozasertib -0.001 | bafetinib 0.083 | [6] -0.01

RFC2 (UniProt P35250)
inactive: alvocidib -0.025 | Tubastatin A -0.21 | [1] -0.012 | defactinib 0.023 | [2] -0.055 | encorafenib 0.042 | [3] 0.113 | alisertib 0.014 | [4] 0.005 | gefitinib 0.007 | lapatinib -0.004 | pictilisib 0.015 | crizotinib -0.046 | [5] -0.025 | duvelisib 0.025 | gandotinib -0.007 | tozasertib 0.005 | doramapimod 0.042 | bafetinib -0.074 | [6] 0.041

RCOR1 (UniProt Q9UKL0)
inactive: alvocidib -0.031 | Tubastatin A -0.021 | [1] -0.017 | defactinib -0.039 | [2] 0.014 | encorafenib 0.01 | [3] 0.115 | alisertib 0.023 | [4] 0.027 | gefitinib -0.011 | lapatinib -0.056 | pictilisib -0.069 | crizotinib 0.048 | [5] -0.083 | duvelisib -0.004 | gandotinib -0.009 | tozasertib 0.019 | doramapimod -0.061 | bafetinib -0.056 | [6] 0.041

REXO4 (UniProt Q9GZR2)
active: [5] 0.349
inactive: alvocidib 0.089 | Tubastatin A -0.108 | [1] 0.026 | defactinib 0.013 | [2] 0.032 | encorafenib -0.007 | [3] 0.08 | alisertib -0.008 | [4] 0.024 | gefitinib -0.029 | lapatinib 0 | pictilisib -0.128 | crizotinib 0.017 | duvelisib -0.003 | gandotinib -0.169 | tozasertib -0.017 | doramapimod -0.056 | bafetinib -0.06 | [6] -0.139

2 entries picked at random from those above:
RFC2 (UniProt P35250)
inactive: alvocidib -0.025 | Tubastatin A -0.21 | [1] -0.012 | defactinib 0.023 | [2] -0.055 | encorafenib 0.042 | [3] 0.113 | alisertib 0.014 | [4] 0.005 | gefitinib 0.007 | lapatinib -0.004 | pictilisib 0.015 | crizotinib -0.046 | [5] -0.025 | duvelisib 0.025 | gandotinib -0.007 | tozasertib 0.005 | doramapimod 0.042 | bafetinib -0.074 | [6] 0.041

RASA2 (UniProt Q15283)
inactive: alvocidib 0 | Tubastatin A -0.078 | [1] 0.019 | defactinib 0.053 | [2] -0.064 | encorafenib -0.059 | [3] 0.113 | alisertib -0.003 | [4] -0.008 | gefitinib -0.003 | lapatinib 0.026 | pictilisib -0.089 | crizotinib -0.014 | [5] -0.007 | duvelisib -0.045 | gandotinib -0.087 | tozasertib 0.013 | doramapimod 0.072 | bafetinib -0.078 | [6] 0.096

Later entries

RCOR3 isoform 3 (UniProt Q9P2K3)
inactive: alvocidib -0.005 | Tubastatin A -0.09 | [1] -0.002 | defactinib 0.009 | [2] -0.014 | encorafenib 0.012 | [3] 0.088 | alisertib 0.003 | [4] -0.006 | gefitinib 0.026 | lapatinib 0.016 | pictilisib 0.023 | crizotinib 0.011 | [5] 0.014 | duvelisib -0.029 | gandotinib -0.024 | tozasertib 0.009 | doramapimod -0.048 | bafetinib -0.035 | [6] 0.004

RBM6 (UniProt P78332)
inactive: alvocidib -0.084 | Tubastatin A -0.135 | [1] 0.009 | defactinib 0.029 | [2] 0.018 | encorafenib 0.023 | [3] 0.001 | alisertib -0.031 | [4] 0.101 | gefitinib 0.015 | lapatinib -0.108 | pictilisib -0.009 | crizotinib 0.045 | [5] -0.005 | duvelisib 0 | gandotinib 0.091 | tozasertib -0.052 | doramapimod -0.017 | bafetinib 0.034 | [6] 0.083

RCC2 (UniProt Q9P258)
inactive: alvocidib 0.02 | Tubastatin A 0.015 | [1] -0.03 | defactinib -0.026 | [2] 0.009 | encorafenib -0.012 | [3] -0.044 | alisertib 0.014 | [4] -0.013 | gefitinib -0.007 | lapatinib -0.003 | pictilisib 0.021 | crizotinib -0.014 | [5] -0.005 | duvelisib 0.018 | gandotinib -0.02 | tozasertib 0.024 | doramapimod -0.011 | bafetinib 0.002 | [6] -0.022

RDH13 (UniProt Q8NBN7)
inactive: alvocidib 0.018 | Tubastatin A -0.162 | [1] -0.001 | defactinib 0.1 | [2] 0.051 | encorafenib -0.115 | [3] -0.068 | alisertib 0.011 | [4] -0.076 | gefitinib -0.015 | lapatinib -0.025 | pictilisib -0.015 | crizotinib -0.039 | [5] -0.019 | duvelisib 0.038 | gandotinib -0.11 | tozasertib 0.073 | doramapimod -0.019 | bafetinib -0.073 | [6] 0.047

RBM22 (UniProt Q9NW64)
inactive: alvocidib 0.022 | Tubastatin A 0.019 | [1] 0.009 | defactinib 0.001 | [2] 0.179 | encorafenib 0.05 | [3] -0.11 | alisertib 0.002 | [4] 0.026 | gefitinib 0.031 | lapatinib -0.01 | pictilisib -0.011 | crizotinib 0.038 | [5] 0.034 | duvelisib 0.008 | gandotinib -0.019 | tozasertib 0.026 | doramapimod 0.072 | bafetinib 0.001 | [6] -0.016

RCN3 (UniProt Q96D15)
inactive: alvocidib -0.025 | Tubastatin A 0.002 | [1] 0.005 | defactinib 0.026 | [2] 0.063 | encorafenib -0.002 | [3] 0.046 | alisertib -0.059 | [4] -0.015 | gefitinib 0.052 | lapatinib -0.03 | pictilisib -0.026 | crizotinib 0.004 | [5] -0.018 | duvelisib -0.092 | gandotinib 0.087 | tozasertib 0.043 | doramapimod -0.073 | bafetinib 0.013 | [6] -0.022

RELN (UniProt P78509)
inactive: alvocidib 0.026 | Tubastatin A -0.051 | [1] -0.025 | defactinib 0.055 | [2] -0.016 | encorafenib -0.009 | [3] -0.092 | alisertib -0.014 | [4] 0.141 | gefitinib 0.089 | lapatinib 0.047 | pictilisib 0.047 | crizotinib -0.022 | [5] -0.104 | duvelisib 0.002 | gandotinib 0.057 | tozasertib -0.002 | doramapimod -0.044 | bafetinib -0.042 | [6] 0.08

RASA1 (UniProt P20936)
inactive: alvocidib -0.018 | Tubastatin A -0.029 | [1] 0.053 | defactinib 0.005 | [2] -0.046 | encorafenib 0.033 | [3] 0.006 | alisertib -0.026 | [4] 0 | gefitinib 0.012 | lapatinib -0.005 | pictilisib -0.057 | crizotinib -0.004 | [5] 0.01 | duvelisib -0.05 | gandotinib -0.044 | tozasertib 0.013 | doramapimod -0.013 | bafetinib -0.016 | [6] -0.001

REPIN1 isoform 4 (UniProt Q9BWE0)
inactive: alvocidib 0.051 | Tubastatin A 0.086 | [1] -0.053 | defactinib 0.011 | [2] 0.024 | encorafenib 0.02 | [3] -0.024 | alisertib 0.04 | [4] 0.021 | gefitinib -0.013 | lapatinib -0.004 | pictilisib -0.011 | crizotinib 0.051 | [5] -0.034 | duvelisib -0.064 | gandotinib -0.006 | tozasertib -0.041 | doramapimod -0.065 | bafetinib -0.038 | [6] 0.051

REEP5 (UniProt Q00765)
active: [3] 0.263
inactive: alvocidib -0.054 | Tubastatin A -0.004 | [1] -0.056 | defactinib 0.04 | [2] 0.035 | encorafenib 0.001 | alisertib -0.009 | [4] 0.001 | gefitinib -0.092 | lapatinib -0.001 | pictilisib -0.026 | crizotinib 0.024 | [5] -0.11 | duvelisib 0.01 | gandotinib 0.061 | tozasertib -0.052 | doramapimod -0.03 | bafetinib -0.027 | [6] 0.055

RFX1 (UniProt P22670)
inactive: alvocidib -0.001 | Tubastatin A 0.076 | [1] 0.011 | defactinib -0.008 | [2] -0.005 | encorafenib 0.011 | [3] -0.054 | alisertib -0.022 | [4] -0.007 | gefitinib -0.011 | lapatinib -0.031 | pictilisib 0.015 | crizotinib -0.023 | [5] -0.052 | duvelisib -0.008 | gandotinib 0.017 | tozasertib -0.014 | doramapimod -0.041 | bafetinib -0.047 | [6] -0.001
